Experimental data published in PubChem BioAssay AID328 (DTP/NCI, 2004).
The list does not hold the whole screen: it gathers tests that were run many times, whatever their T/C, doses with no T/C, and many T/C values between a quarter and a half above the control. Other doses and runs of a compound stand elsewhere. T/C gives the treated animals as a percentage of the vehicle group. Some doses have a count of surviving animals in place of a T/C: the source files T/C as zero there, which appears to mark a toxic dose or a test without result, not a measured value. Some survivor counts are full or nearly so, which does not show that the dose was tolerated: the source hardly ever lists a survival T/C far under the control, and the zero likely stands for such cases as well. Survivors were counted at the toxicity check, usually on the fifth day, unless a day is given; later deaths do not show. Schedules are NCI's codes, read here as Q, the interval in days (D) or hours (H), X, the number of doses. Some entries were tested several times; the results are listed from low to high. For survival time, this PubChem deposit counts one and a half times the control or more as active, and values a quarter to a half above the control carry no call in these data; other NCI protocols may use other cut-offs. Some T/C values are followed by the survivors on the day toxicity was checked, most often the fifth; where none is given, no animal had died by that day.

Tested on: BDF1 mice, P388 leukemia ip, median survival T/C
Experiment: NCI In Vivo Anticancer Drug Screen. Data for tumor model P388 Leukemia (intraperitoneal) in B6D2F1 (BDF1) mice
Conditions: T/C endpoint: median survival time, higher T/C = longer survival
Procedure, shortened: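 Mice carrying the transplantable tumour receive compound or vehicle. Survival is followed in each arm, and the treated measure is divided by the vehicle measure.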

[1] = dose: 50.0 mg/kg/injection, schedule: Q01DX009 (ip), vehicle: Klucel (hydroxypropylcellulose) (HPC)
[2] = dose: 100.0 mg/kg/injection, schedule: Q01DX009 (ip), vehicle: Klucel (hydroxypropylcellulose) (HPC)
[3] = dose: 200.0 mg/kg/injection, schedule: Q01DX009 (ip), vehicle: Klucel (hydroxypropylcellulose) (HPC)
[4] = dose: 12.5 mg/kg/injection, schedule: Q01DX009 (ip), vehicle: Klucel (hydroxypropylcellulose) (HPC)
[5] = dose: 50.0 mg/kg/injection, schedule: Q01DX009 (ip), vehicle: saline with Tween-80
[6] = dose: 12.5 mg/kg/injection, schedule: Q01DX009 (ip), vehicle: saline with Tween-80
[7] = dose: 400.0 mg/kg/injection, schedule: Q04DX003 (ip), vehicle: saline with Tween-80
[8] = dose: 400.0 mg/kg/injection, schedule: Q01DX009 (ip), vehicle: saline with Tween-80
[9] = dose: 100.0 mg/kg/injection, schedule: Q04DX003 (ip), vehicle: saline with Tween-80
[10] = dose: 400.0 mg/kg/injection, schedule: Q01DX009 (ip), vehicle: Klucel (hydroxypropylcellulose) (HPC)
[11] = dose: 200.0 mg/kg/injection, schedule: Q01DX009 (ip), vehicle: saline with Tween-80

`NC(=O)c1nn(C2OC(CO)C(O)C2O)c2ncnc(N)c12` (stereo not given) was tested, and the survivor count (dose: 25.0 mg/kg/injection, schedule: Q01DX009 (ip), vehicle: Klucel (hydroxypropylcellulose) (HPC)) was 3 of 6, the survivor count [1] was 2 of 6 and the survivor count [2] was 0 of 6. The survivor count [3] was 0 of 6.
`COc1cc(C=Nc2ccc(-c3nc(Cc4ccccc4)sc3C)cc2)ccc1N(CCCl)CCCl` was tested, and the T/C [4] was 142 % of control [5 of 6 alive] and the survivor count [2] was 5 of 6.
With `O=CN(O)CC(=O)O.[Zn]` the T/C (dose: 8.5 mg/kg/injection, schedule: Q04DX003 (ip), vehicle: saline) was 140 % of control, the T/C (dose: 9.37 mg/kg/injection, schedule: Q01DX009 (ip), vehicle: saline) was 127 % of control and the survivor count (dose: 12.5 mg/kg/injection, schedule: Q01DX009 (ip), vehicle: saline) was 1 of 6. For the same compound, the T/C (dose: 13.0 mg/kg/injection, schedule: Q04DX003 (ip), vehicle: saline) was 136 % of control, the survivor count (dose: 19.0 mg/kg/injection, schedule: Q04DX003 (ip), vehicle: saline) was 4 of 6 and the T/C (dose: 21.0 mg/kg/injection, schedule: Q04DX003 (ip), vehicle: saline) was 127 % of control. For the same compound, the survivor count (dose: 25.0 mg/kg/injection, schedule: Q01DX009 (ip), vehicle: saline) was 2 of 6.
With `CC(=O)Nc1c(Cl)c(Cl)c2c(c1Cl)Cc1cc(Br)ccc1-2` the T/C (dose: 6.25 mg/kg/injection, schedule: Q01DX009 (ip), vehicle: Klucel (hydroxypropylcellulose) (HPC)) was 125 % of control [4 of 6 alive], the T/C [4] was 125 % of control and the survivor count (dose: 100.0 mg/kg/injection, schedule: Q01DX009 (ip), vehicle: saline) was 5 of 6.
`C[Si](C)(C)O/C=C1\CCCCC1=O` was tested, and the T/C [5] was 126 % of control.
With `ClC1=NC(Cl)C(Cl)=N/C1=N\c1ncn[nH]1` (stereo not given) the T/C (dose: 11.0 mg/kg/injection, schedule: Q01DX009 (ip), vehicle: saline with Tween-80) was 133 % of control, the T/C [6] was 135 % of control and the T/C (dose: 12.5 mg/kg/injection, schedule: Q04DX003 (ip), vehicle: saline with Tween-80) was 125 % of control. The T/C (dose: 16.5 mg/kg/injection, schedule: Q01DX009 (ip), vehicle: saline with Tween-80) was 133 % of control, the T/C (dose: 22.0 mg/kg/injection, schedule: Q04DX003 (ip), vehicle: saline with Tween-80) was 127 % of control and the T/C (dose: 25.0 mg/kg/injection, schedule: Q01DX009 (ip), vehicle: saline with Tween-80) was 133 and 140 % of control. The T/C (dose: 25.0 mg/kg/injection, schedule: Q04DX003 (ip), vehicle: saline with Tween-80) was 135 % of control, the T/C (dose: 37.5 mg/kg/injection, schedule: Q01DX009 (ip), vehicle: saline with Tween-80) was 138 % of control and the T/C (dose: 50.0 mg/kg/injection, schedule: Q04DX003 (ip), vehicle: saline with Tween-80) was 127 and 130 % of control [5 of 6 alive]. For the same compound, the survivor count (dose: 75.0 mg/kg/injection, schedule: Q04DX003 (ip), vehicle: saline with Tween-80) was 6 of 6.
With `c1cc(OCC2CO2)ccc1OCC1CO1` (stereo not given) the T/C (dose: 118.0 mg/kg/injection, schedule: Q04DX003 (ip), vehicle: saline with Tween-80) was 142 % of control, the T/C (dose: 264.0 mg/kg/injection, schedule: Q04DX003 (ip), vehicle: saline with Tween-80) was 145 and 146 % of control and the T/C [7] was 136 % of control [5 of 6 alive].
In the case of `COc1ccc(OC)c(Br)c1`, the T/C [8] is reported as 140 % of control.
With `CCOC(=O)C(=Cc1c[nH]c2ccccc12)C(=O)OCC` the T/C [9] was 136 % of control.
With `CC[N+](CC)(CC)CC` the T/C (dose: 6.0 mg/kg/injection, schedule: Q01DX009 (ip), vehicle: saline with Tween-80) was 131 % of control, the T/C (dose: 6.25 mg/kg/injection, schedule: Q01DX009 (ip), vehicle: saline with Tween-80) was 135 % of control and the survivor count (dose: 9.0 mg/kg/injection, schedule: Q01DX009 (ip), vehicle: saline with Tween-80) was 5 of 6. The survivor count [6] was 6 of 6.
For `OCCCN1CCC2(CC1)SSC1(CCN(CCCO)CC1)S2`, the survivor count (dose: 400.0 mg/kg/injection, schedule: Q04DX003 (ip), vehicle: saline) was 0 of 6.
With `Nc1nc2ccccc2[nH]1` the survivor count (dose: 200.0 mg/kg/injection, schedule: Q01DX009 (ip), vehicle: saline) was 0 of 6.
For `CN(C)P(=O)(Oc1ccccc1)N(C)C`, the T/C [5] was 135 % of control.
`O=C(Nc1ccc(C2=NCCN2)cc1)Nc1cccc(NC(=O)Nc2ccc(C3=NCCN3)cc2)c1` was tested, and the T/C (dose: 480.0 mg/kg/injection, schedule: Q01DX010 (ip), vehicle: saline) was 125 % of control.
`CC(=O)N1CCCC1=O` was tested, and the survivor count [10] was 4 of 6.
For `O=C(CN1CCCCC1)Nc1ccc(Br)cc1`, the survivor count [8] was 2 of 6.
For `NC(=O)c1cn[nH]c1N`, the survivor count [2] was 6 of 6, the survivor count [3] was 6 of 6 and the survivor count [10] was 6 of 6.
In the case of `CN1N=Nc2cccc3cccc1c23`, the survivor count (dose: 150.0 mg/kg/injection, schedule: Q01DX009 (ip), vehicle: Klucel (hydroxypropylcellulose) (HPC)) is reported as 0 of 6 and the survivor count (dose: 225.0 mg/kg/injection, schedule: Q01DX009 (ip), vehicle: Klucel (hydroxypropylcellulose) (HPC)) is reported as 0 of 6.
For `CCC(=O)O[C@H]1CC[C@H]2[C@@H]3CC(=C(Br)Br)C4=CC(=O)CC[C@]4(C)[C@H]3CC[C@]12C`, the survivor count (dose: 100.0 mg/kg/injection, schedule: Q01DX009 (ip), vehicle: saline with Tween-80) was 6 of 6 and the survivor count [11] was 6 of 6.
`CCCCCCCCCCCCN1C(=O)[N+](C)(C)N=C1[O-]` was tested, and the survivor count [11] was 5 of 6.
For `O=C(O)O.[Mn]`, the survivor count (dose: 400.0 mg/kg/injection, schedule: Q01DX010 (ip), vehicle: water) was 10 of 10.
With `OCCN1CCN(CC/C=C2\c3ccccc3COc3ccc(Cl)cc32)CC1` the survivor count (dose: 12.5 mg/kg/injection, schedule: Q04DX003 (ip), vehicle: saline) was 3 of 6 and the T/C (dose: 50.0 mg/kg/injection, schedule: Q04DX003 (ip), vehicle: saline) was 147 % of control.
For `CCC[CH2][Sn]([CH2]CCC)[CH2]CCC.CCC[CH2][Sn]([CH2]CCC)[CH2]CCC`, the survivor count (dose: 30.0 mg/kg/injection, schedule: Q01DX009 (ip), vehicle: saline with Tween-80) was 3 of 6, the survivor count (dose: 44.0 mg/kg/injection, schedule: Q01DX009 (ip), vehicle: saline with Tween-80) was 0 of 6 and the survivor count (dose: 44.0 mg/kg/injection, schedule: Q04DX003 (ip), vehicle: saline with Tween-80) was 1 of 6 and 5 of 6. For the same compound, the survivor count [1] was 3 of 6, the survivor count (dose: 67.0 mg/kg/injection, schedule: Q01DX009 (ip), vehicle: saline with Tween-80) was 0 of 6 and the survivor count (dose: 67.0 mg/kg/injection, schedule: Q04DX003 (ip), vehicle: saline with Tween-80) was 2 of 6 and 6 of 6. For the same compound, the survivor count [2] was 0 of 6, the T/C [9] was 131 % of control and the survivor count [9] was 2 of 6 and 3 of 6. For the same compound, the survivor count (dose: 150.0 mg/kg/injection, schedule: Q04DX003 (ip), vehicle: saline with Tween-80) was 0 of 6, the survivor count (dose: 200.0 mg/kg/injection, schedule: Q04DX003 (ip), vehicle: saline with Tween-80) was 2 of 6 and the survivor count [7] was 0 of 6.
